Laboratory results: the supplement of paper PMC12823440, “Inhibitors supercharge kinase turnover through native proteolytic circuits” (Nature, 2025)
Counter-ions that a name gives are not always drawn. Some of the results follow. The calls rarely recur for the same compound in another form.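 In K562 cells expressing nanoluciferase-fused kinases, luminescence was recorded at 4 h intervals between 2 and 18 h, normalized as percent of control with DMSO at 100% and a positive control at 0%. A significant (2 sigma) signal drop marks a time point as decreased. The authors' rule for a hit is not shown and takes in more than the number of time points.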

By UniProt entry, the sequences of proteins in these tests, tags left out. Where a name states a change or a piece, a line headed by the entry shows the natural chain unless it says otherwise.
UniProt P29317, whole entry: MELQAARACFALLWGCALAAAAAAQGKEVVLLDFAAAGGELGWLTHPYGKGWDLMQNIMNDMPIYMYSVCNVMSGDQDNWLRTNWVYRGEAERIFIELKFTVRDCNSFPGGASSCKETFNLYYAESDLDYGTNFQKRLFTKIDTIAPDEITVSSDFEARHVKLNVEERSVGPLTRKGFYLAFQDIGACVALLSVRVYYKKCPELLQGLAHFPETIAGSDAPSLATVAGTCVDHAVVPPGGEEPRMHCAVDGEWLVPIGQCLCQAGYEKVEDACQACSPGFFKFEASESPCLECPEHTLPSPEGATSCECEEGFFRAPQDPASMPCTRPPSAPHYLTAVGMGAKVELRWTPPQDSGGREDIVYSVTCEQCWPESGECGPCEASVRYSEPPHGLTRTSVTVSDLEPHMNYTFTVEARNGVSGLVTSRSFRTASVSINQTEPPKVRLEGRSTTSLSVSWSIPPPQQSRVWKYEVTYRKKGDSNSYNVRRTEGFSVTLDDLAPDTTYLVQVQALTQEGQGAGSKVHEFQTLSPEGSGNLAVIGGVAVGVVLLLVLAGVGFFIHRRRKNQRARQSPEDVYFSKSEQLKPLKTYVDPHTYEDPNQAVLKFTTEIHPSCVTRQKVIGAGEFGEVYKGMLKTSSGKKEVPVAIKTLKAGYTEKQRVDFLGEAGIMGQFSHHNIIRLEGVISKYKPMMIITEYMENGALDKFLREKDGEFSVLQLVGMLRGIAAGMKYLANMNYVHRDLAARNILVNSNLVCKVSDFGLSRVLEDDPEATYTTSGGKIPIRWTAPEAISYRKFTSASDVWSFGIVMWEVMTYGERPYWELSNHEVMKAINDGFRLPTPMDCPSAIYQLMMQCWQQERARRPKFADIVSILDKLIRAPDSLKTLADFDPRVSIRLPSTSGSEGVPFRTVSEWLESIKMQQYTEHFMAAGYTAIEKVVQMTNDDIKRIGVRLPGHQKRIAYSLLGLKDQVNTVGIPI
UniProt Q15303, whole entry R711C: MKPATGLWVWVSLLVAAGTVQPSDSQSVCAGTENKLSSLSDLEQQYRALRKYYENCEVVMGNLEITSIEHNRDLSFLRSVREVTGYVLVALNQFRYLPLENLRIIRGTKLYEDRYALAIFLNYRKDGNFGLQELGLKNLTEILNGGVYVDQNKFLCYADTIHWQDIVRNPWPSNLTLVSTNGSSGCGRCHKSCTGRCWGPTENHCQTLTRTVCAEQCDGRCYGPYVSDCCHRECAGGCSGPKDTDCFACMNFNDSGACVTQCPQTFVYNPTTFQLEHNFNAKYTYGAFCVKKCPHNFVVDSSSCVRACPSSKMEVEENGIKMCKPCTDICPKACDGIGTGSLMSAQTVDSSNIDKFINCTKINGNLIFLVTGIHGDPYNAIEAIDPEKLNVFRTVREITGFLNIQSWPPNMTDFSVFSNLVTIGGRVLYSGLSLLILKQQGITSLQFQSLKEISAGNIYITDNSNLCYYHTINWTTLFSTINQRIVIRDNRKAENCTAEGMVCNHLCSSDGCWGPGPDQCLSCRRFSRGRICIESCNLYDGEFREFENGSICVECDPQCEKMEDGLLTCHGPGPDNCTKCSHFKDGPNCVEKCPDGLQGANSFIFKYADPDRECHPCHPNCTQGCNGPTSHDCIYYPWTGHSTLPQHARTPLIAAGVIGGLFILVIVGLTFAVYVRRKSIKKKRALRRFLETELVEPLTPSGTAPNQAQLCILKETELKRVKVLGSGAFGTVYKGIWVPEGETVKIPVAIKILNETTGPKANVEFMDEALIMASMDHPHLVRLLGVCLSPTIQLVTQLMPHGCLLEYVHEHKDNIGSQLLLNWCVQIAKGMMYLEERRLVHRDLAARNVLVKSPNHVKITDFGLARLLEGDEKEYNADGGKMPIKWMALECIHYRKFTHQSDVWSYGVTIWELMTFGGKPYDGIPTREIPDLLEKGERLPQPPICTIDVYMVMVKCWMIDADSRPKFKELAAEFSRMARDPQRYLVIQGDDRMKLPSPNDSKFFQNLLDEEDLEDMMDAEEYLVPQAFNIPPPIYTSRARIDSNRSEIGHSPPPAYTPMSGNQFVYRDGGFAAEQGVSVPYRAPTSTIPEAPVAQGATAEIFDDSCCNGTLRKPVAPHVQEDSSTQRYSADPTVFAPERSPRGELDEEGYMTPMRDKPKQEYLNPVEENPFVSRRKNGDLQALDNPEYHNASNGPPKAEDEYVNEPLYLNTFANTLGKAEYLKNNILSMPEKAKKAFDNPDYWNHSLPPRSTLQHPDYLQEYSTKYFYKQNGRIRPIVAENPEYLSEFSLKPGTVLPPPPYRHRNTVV
UniProt P11362, whole entry, looked up: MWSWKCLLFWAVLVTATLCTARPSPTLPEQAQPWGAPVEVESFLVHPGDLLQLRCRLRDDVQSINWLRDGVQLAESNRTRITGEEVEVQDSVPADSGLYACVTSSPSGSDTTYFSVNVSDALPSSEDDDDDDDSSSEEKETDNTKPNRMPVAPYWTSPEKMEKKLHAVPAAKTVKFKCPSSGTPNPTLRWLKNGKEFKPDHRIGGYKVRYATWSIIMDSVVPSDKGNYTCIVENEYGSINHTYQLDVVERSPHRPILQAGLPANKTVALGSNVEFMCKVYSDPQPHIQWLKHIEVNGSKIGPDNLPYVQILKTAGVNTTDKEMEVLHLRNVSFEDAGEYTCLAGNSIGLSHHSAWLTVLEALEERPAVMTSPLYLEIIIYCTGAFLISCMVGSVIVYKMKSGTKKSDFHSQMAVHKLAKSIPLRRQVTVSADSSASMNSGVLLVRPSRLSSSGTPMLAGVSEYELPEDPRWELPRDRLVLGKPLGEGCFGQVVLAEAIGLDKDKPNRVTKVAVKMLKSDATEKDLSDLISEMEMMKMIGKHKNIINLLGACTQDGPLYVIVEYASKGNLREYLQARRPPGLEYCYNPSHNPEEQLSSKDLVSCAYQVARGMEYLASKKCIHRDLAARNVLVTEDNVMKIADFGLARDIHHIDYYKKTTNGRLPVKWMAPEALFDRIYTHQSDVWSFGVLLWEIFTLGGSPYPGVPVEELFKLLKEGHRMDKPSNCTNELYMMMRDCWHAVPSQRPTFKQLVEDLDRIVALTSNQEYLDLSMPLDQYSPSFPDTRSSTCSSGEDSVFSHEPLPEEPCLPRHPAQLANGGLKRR
UniProt P21802, whole entry, looked up: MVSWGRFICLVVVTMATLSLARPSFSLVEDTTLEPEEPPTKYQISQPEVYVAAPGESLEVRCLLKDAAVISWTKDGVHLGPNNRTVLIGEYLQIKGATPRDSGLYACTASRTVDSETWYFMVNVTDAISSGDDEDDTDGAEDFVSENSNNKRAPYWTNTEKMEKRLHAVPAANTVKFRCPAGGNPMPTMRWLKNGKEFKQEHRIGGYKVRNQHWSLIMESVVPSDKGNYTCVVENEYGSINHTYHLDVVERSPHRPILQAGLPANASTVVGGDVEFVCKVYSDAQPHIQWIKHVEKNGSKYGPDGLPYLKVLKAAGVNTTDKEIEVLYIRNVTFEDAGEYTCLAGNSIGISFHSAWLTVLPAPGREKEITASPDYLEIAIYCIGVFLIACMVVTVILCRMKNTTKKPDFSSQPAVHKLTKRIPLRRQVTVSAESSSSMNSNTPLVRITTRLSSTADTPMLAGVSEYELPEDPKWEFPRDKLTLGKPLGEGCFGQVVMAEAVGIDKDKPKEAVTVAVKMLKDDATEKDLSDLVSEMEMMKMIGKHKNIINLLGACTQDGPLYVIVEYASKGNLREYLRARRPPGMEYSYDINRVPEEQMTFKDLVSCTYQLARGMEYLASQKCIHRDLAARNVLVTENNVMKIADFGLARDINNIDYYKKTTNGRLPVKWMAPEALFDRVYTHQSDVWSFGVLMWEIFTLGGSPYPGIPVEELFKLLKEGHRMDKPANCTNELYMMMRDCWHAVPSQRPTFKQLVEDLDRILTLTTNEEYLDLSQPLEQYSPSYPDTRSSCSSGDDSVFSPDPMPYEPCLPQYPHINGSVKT
UniProt P22607, whole entry, looked up: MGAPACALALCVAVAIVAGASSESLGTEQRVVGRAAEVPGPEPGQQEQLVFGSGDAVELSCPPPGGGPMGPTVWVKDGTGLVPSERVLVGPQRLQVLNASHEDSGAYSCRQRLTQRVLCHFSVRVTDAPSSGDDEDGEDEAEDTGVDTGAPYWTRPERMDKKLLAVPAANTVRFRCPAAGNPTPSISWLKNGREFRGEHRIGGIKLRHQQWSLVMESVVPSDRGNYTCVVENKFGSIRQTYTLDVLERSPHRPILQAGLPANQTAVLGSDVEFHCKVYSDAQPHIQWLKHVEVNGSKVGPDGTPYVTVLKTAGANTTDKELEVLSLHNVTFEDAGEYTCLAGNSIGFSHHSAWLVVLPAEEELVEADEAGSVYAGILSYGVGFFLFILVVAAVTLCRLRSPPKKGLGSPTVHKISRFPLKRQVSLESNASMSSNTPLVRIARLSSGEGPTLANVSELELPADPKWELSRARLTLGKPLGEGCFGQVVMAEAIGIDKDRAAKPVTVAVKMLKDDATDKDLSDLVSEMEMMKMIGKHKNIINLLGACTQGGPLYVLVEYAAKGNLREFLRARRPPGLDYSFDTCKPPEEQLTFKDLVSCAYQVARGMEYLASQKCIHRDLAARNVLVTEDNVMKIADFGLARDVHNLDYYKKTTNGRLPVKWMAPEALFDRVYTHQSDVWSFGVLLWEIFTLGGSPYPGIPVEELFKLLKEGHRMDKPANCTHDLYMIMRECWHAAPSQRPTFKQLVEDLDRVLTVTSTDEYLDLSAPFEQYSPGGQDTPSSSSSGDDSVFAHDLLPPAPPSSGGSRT
UniProt P49840: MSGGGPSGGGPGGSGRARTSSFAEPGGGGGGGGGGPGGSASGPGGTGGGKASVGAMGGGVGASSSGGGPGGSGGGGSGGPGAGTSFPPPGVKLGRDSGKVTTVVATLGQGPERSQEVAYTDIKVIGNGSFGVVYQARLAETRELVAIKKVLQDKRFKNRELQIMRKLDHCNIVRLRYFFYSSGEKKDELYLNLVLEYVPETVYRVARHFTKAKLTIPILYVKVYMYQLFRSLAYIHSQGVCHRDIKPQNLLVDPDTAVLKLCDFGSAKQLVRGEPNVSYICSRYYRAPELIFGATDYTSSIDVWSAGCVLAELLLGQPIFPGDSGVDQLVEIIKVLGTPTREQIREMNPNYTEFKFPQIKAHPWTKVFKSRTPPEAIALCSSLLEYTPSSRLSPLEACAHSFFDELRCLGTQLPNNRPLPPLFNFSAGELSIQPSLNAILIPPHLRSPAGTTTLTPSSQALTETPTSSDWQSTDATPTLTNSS
UniProt P14616: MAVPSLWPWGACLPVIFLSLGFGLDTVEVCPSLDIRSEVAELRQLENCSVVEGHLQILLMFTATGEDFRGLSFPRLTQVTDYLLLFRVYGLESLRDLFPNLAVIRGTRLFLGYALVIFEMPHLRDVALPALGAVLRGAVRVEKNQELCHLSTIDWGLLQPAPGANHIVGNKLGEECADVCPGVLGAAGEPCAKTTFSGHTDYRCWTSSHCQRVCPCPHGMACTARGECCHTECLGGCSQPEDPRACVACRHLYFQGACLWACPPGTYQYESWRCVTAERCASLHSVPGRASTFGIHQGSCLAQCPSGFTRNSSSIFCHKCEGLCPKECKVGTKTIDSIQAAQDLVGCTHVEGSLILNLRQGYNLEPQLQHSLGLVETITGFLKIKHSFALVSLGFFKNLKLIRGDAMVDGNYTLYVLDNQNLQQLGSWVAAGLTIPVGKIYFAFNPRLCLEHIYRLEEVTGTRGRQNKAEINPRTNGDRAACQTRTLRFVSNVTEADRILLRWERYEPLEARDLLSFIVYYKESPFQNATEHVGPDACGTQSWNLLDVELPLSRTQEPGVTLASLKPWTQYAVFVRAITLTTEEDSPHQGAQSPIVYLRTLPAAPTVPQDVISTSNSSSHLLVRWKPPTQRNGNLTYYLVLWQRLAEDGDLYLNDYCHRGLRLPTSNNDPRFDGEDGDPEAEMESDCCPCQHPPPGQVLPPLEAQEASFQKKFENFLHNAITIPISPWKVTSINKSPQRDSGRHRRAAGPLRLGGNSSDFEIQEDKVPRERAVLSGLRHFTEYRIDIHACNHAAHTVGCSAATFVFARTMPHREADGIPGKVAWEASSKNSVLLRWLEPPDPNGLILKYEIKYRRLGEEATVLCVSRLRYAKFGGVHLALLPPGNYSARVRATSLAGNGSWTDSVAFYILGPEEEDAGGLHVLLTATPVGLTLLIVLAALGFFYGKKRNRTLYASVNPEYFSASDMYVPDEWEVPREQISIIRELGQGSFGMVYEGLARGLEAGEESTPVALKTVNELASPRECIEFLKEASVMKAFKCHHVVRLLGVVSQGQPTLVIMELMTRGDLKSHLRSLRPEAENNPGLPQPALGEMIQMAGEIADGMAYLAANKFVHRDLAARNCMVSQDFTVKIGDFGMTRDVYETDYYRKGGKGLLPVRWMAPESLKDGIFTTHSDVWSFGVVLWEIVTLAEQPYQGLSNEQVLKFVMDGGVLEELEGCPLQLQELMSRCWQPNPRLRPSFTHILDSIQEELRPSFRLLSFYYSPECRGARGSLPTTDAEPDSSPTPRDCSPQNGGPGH

Tests used:
Assay in all cases: kinase-Nluc reporter destabilization hit call (1 = scored as downregulated) (binary); higher = compound decreases kinase abundance
Conditions in all cases: K562; 2-18 h
EGFR = EGFR (UniProt P00533)
EGFR_G719S = EGFR_G719S (UniProt P00533)
EGFR_G719S_T790M = EGFR_G719S_T790M (UniProt P00533)
EGFR_L718V = EGFR_L718V (UniProt P00533)
EGFR_L858R = EGFR_L858R (UniProt P00533)
EGFR_L861Q = EGFR_L861Q (UniProt P00533)
EGFR_T790M = EGFR_T790M (UniProt P00533)
EPHA2 = EPHA2 (UniProt P29317)
ERBB3 = ERBB3 (UniProt P21860)
[1] = molecular target: ERBB4_R711C (clone: ERBB4_mut) (UniProt Q15303)
ERN1 = ERN1 (UniProt O75460)
FGFR1 = FGFR1 (UniProt P11362)
FGFR2 = FGFR2 (UniProt P21802)
FGFR3 = FGFR3 (UniProt P22607)
FGR = FGR (UniProt P09769)
FLT3 = FLT3 (UniProt P36888)
FYN = FYN (UniProt P06241)
GSK3A = GSK3A (UniProt P49840)
HER2 = HER2 (UniProt P04626)
INSRR = INSRR (UniProt P14616)

Compound | kinase-Nluc reporter destabilization hit call (EGFR) | kinase-Nluc reporter destabilization hit call (EGFR_G719S) | kinase-Nluc reporter destabilization hit call (EGFR_G719S_T790M) | kinase-Nluc reporter destabilization hit call (EGFR_L718V) | kinase-Nluc reporter destabilization hit call (EGFR_L858R) | kinase-Nluc reporter destabilization hit call (EGFR_L861Q) | kinase-Nluc reporter destabilization hit call (EGFR_T790M) | kinase-Nluc reporter destabilization hit call (EPHA2) | kinase-Nluc reporter destabilization hit call (ERBB3) | kinase-Nluc reporter destabilization hit call [1] | kinase-Nluc reporter destabilization hit call (ERN1) | kinase-Nluc reporter destabilization hit call (FGFR1) | kinase-Nluc reporter destabilization hit call (FGFR2) | kinase-Nluc reporter destabilization hit call (FGFR3) | kinase-Nluc reporter destabilization hit call (FGR) | kinase-Nluc reporter destabilization hit call (FLT3) | kinase-Nluc reporter destabilization hit call (FYN) | kinase-Nluc reporter destabilization hit call (GSK3A) | kinase-Nluc reporter destabilization hit call (HER2) | kinase-Nluc reporter destabilization hit call (INSRR)
CN(C)c1cc[n+](Cc2ccc(OCCOc3ccc(C[n+]4ccc(N(C)C)cc4)cc3)cc2)cc1 (10 µM) | inactive: 0 | inactive: 0 | inactive: 0 | inactive: 0 | inactive: 0 | inactive: 0 | inactive: 0 | inactive: 0 | inactive: 0 | inactive: 0 | inactive: 0 | inactive: 0 | inactive: 0 | inactive: 0 | inactive: 0 | inactive: 0 | inactive: 0 | inactive: 0 | inactive: 0 | inactive: 0
C=CC(=O)Nc1cc(Nc2nccc(-c3cn(C)c4ccccc34)n2)c(OCC(F)(F)F)nc1N(C)CCNC [AST5902  (trimesylate)] (2.5 µM) | inactive: 0 | inactive: 0 | inactive: 0 | inactive: 0 | inactive: 0 | inactive: 0 | inactive: 0 | inactive: 0 | inactive: 0 | inactive: 0 | inactive: 0 | inactive: 0 | inactive: 0 | inactive: 0 | inactive: 0 | inactive: 0 | inactive: 0 | inactive: 0 | inactive: 0 | inactive: 0
Cn1cc(-c2nc(N[C@@H]3CCCC[C@@H]3N)c(F)c3c2C(=O)NC3)cn1 [TAK-659 (hydrochloride)] (2 µM) | inactive: 0 | inactive: 0 | inactive: 0 | inactive: 0 | inactive: 0 | inactive: 0 | inactive: 0 | inactive: 0 | inactive: 0 | inactive: 0 | inactive: 0 | inactive: 0 | inactive: 0 | inactive: 0 | inactive: 0 | inactive: 0 | inactive: 0 | inactive: 0 | inactive: 0 | inactive: 0
N#Cc1cc(-c2ccnc(Nc3ccc(N4CCOCC4)cc3)n2)ccc1OC1CCOCC1 (10 µM) | inactive: 0 | inactive: 0 | inactive: 0 | inactive: 0 | inactive: 0 | inactive: 0 | inactive: 0 | inactive: 0 | inactive: 0 | inactive: 0 | inactive: 0 | inactive: 0 | inactive: 0 | inactive: 0 | inactive: 0 | inactive: 0 | inactive: 0 | inactive: 0 | active: 1 | inactive: 0
COc1cc2c(cc1OC)[C@@H]1C(=O)c3ccc4c(c3O[C@@H]1CO2)C=CC(C)(C)O4 [Deguelin] (10 µM) | inactive: 0 | inactive: 0 | inactive: 0 | inactive: 0 | inactive: 0 | inactive: 0 | inactive: 0 | inactive: 0 | inactive: 0 | inactive: 0 | inactive: 0 | inactive: 0 | inactive: 0 | inactive: 0 | inactive: 0 | inactive: 0 | inactive: 0 | inactive: 0 | inactive: 0 | inactive: 0
CN(C)C(=O)c1cc2cnc(Nc3ccc(N4CCN(CCCCNC(=O)COc5cccc6c5C(=O)N(C5CCC(=O)NC5=O)C6=O)CC4)cn3)nc2n1C1CCCC1 (stereo not given) (10 µM) | inactive: 0 | inactive: 0 | inactive: 0 | inactive: 0 | inactive: 0 | inactive: 0 | inactive: 0 | inactive: 0 | inactive: 0 | inactive: 0 | inactive: 0 | inactive: 0 | inactive: 0 | inactive: 0 | inactive: 0 | inactive: 0 | inactive: 0 | inactive: 0 | inactive: 0 | inactive: 0
COc1c(Nc2ncc(Cl)c(N[C@H]3[C@@H](C(N)=O)[C@@H]4C=C[C@H]3C4)n2)ccc2c1CC[C@@H](N1CCOCC1)CC2 (10 µM) | inactive: 0 | inactive: 0 | inactive: 0 | inactive: 0 | inactive: 0 | inactive: 0 | inactive: 0 | inactive: 0 | inactive: 0 | inactive: 0 | inactive: 0 | inactive: 0 | inactive: 0 | inactive: 0 | inactive: 0 | inactive: 0 | inactive: 0 | inactive: 0 | inactive: 0 | inactive: 0
N#C/C(=C/c1ccc(O)c(O)c1)C(=O)N1CCc2ccccc21 [Tyrphostin AG 528] (10 µM) | inactive: 0 | inactive: 0 | inactive: 0 | inactive: 0 | inactive: 0 | inactive: 0 | inactive: 0 | inactive: 0 | inactive: 0 | inactive: 0 | inactive: 0 | inactive: 0 | inactive: 0 | inactive: 0 | inactive: 0 | inactive: 0 | inactive: 0 | inactive: 0 | inactive: 0 | inactive: 0
CC(C)c1cc2c(c(O)c1O)[C@@]13CCCC(C)(C)[C@@H]1C[C@@H]2OC3=O [Carnosol] (2.5 µM) | inactive: 0 | inactive: 0 | inactive: 0 | inactive: 0 | inactive: 0 | inactive: 0 | inactive: 0 | inactive: 0 | inactive: 0 | inactive: 0 | inactive: 0 | inactive: 0 | inactive: 0 | inactive: 0 | inactive: 0 | inactive: 0 | inactive: 0 | inactive: 0 | inactive: 0 | inactive: 0
CN1CCN(c2ccc(-c3ccncc3-c3cc(F)c(O)c(F)c3)cc2)CC1 (10 µM) | inactive: 0 | inactive: 0 | inactive: 0 | inactive: 0 | inactive: 0 | inactive: 0 | inactive: 0 | inactive: 0 | inactive: 0 | inactive: 0 | inactive: 0 | inactive: 0 | inactive: 0 | inactive: 0 | inactive: 0 | inactive: 0 | inactive: 0 | inactive: 0 | inactive: 0 | inactive: 0
CC(C)n1cnc2c(Nc3cccc(Cl)c3)nc(N[C@H]3CCCC[C@@H]3N)nc21 (2.5 µM) | inactive: 0 | inactive: 0 | inactive: 0 | inactive: 0 | inactive: 0 | inactive: 0 | inactive: 0 | inactive: 0 | inactive: 0 | inactive: 0 | inactive: 0 | inactive: 0 | inactive: 0 | inactive: 0 | inactive: 0 | inactive: 0 | inactive: 0 | inactive: 0 | inactive: 0 | inactive: 0
O=c1c(O)c(-c2ccc(O)c(O)c2)oc2cc(O)c(O)c(O)c12 [Quercetagetin] (10 µM) | inactive: 0 | inactive: 0 | inactive: 0 | inactive: 0 | inactive: 0 | inactive: 0 | inactive: 0 | inactive: 0 | inactive: 0 | inactive: 0 | inactive: 0 | inactive: 0 | inactive: 0 | inactive: 0 | inactive: 0 | inactive: 0 | inactive: 0 | inactive: 0 | inactive: 0 | inactive: 0

A few values from the results shown.
COc1c(Nc2ncc(Cl)c(N[C@H]3[C@@H](C(N)=O)[C@@H]4C=C[C@H]3C4)n2)ccc2c1CC[C@@H](N1CCOCC1)CC2 (10 µM) | kinase-Nluc reporter destabilization hit call (ERN1): inactive: 0
Cn1cc(-c2nc(N[C@@H]3CCCC[C@@H]3N)c(F)c3c2C(=O)NC3)cn1 [TAK-659 (hydrochloride)] (2 µM) | kinase-Nluc reporter destabilization hit call (EPHA2): inactive: 0
